# In the supplement of paper PMC4604168 (melanoma cell lines):
# The other results are listed elsewhere or left out. Single values are uncertain, as repeats are few or missing.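 Imaging used 1,536-well plates; nuclei positive for cleaved PARP by antibody were divided by total DNA-stained nuclei to yield the apoptosis fraction. Doses for screening kept most cells viable, and cell lines differ markedly in resting and induced cleaved-PARP levels.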
# Experiments:
# Assay in all cases: cleaved PARP positive nuclei fraction relative to DMSO control; melanoma cells; higher = more apoptosis
# Conditions in all cases: library dose: low library concentration; 72 h
# MZ2-MEL = system: MZ2-MEL
# MeWo = system: MeWo
# RPMI7951 = system: RPMI7951
# RVH-421 = system: RVH-421
# SkMel28 = system: SkMel28
# SkMel2 = system: SkMel2
# SkMel30 = system: SkMel30
# SkMel5 = system: SkMel5
# UACC257 = system: UACC257
# UACC62 = system: UACC62
# WM115 = system: WM115
# WM1716 = system: WM1716
# WM1745 = system: WM1745
# WM3526 = system: WM3526
# WM3619 = system: WM3619
# WM451Lu = system: WM451Lu
SMILES,cleaved PARP positive nuclei fraction (MZ2-MEL),cleaved PARP positive nuclei fraction (MeWo),cleaved PARP positive nuclei fraction (RPMI7951),cleaved PARP positive nuclei fraction (RVH-421),cleaved PARP positive nuclei fraction (SkMel28),cleaved PARP positive nuclei fraction (SkMel2),cleaved PARP positive nuclei fraction (SkMel30),cleaved PARP positive nuclei fraction (SkMel5),cleaved PARP positive nuclei fraction (UACC257),cleaved PARP positive nuclei fraction (UACC62),cleaved PARP positive nuclei fraction (WM115),cleaved PARP positive nuclei fraction (WM1716),cleaved PARP positive nuclei fraction (WM1745),cleaved PARP positive nuclei fraction (WM3526),cleaved PARP positive nuclei fraction (WM3619),cleaved PARP positive nuclei fraction (WM451Lu)
"Cc1ccc(Nc2nccc(N(C)c3ccc4c(C)n(C)nc4c3)n2)cc1S(N)(=O)=O [Pazopanib] + Cc1cc([N+](=O)[O-])ccc1NS(=O)(=O)c1cc(Cl)ccc1Cl [FH535] (first compound 0.4 µM, partner dose 1 µM)",34.1%,62.3%,72.6%,158%,74.4%,75.9%,311%,92.7%,82.9%,106%,258%,113%,89.7%,110%,93%,56.8%
"Cc1cn(-c2cc(NC(=O)c3ccc(C)c(Nc4nccc(-c5cccnc5)n4)c3)cc(C(F)(F)F)c2)cn1 [nilotinib] + COc1cc(Nc2ncc(F)c(Nc3ccc4c(n3)NC(=O)C(C)(C)O4)n2)cc(OC)c1OC [Tamatinib] (first compound 0.2 µM, partner dose 0.4 µM)",80.6%,382%,49.6%,51.5%,107%,236%,77.5%,359%,240%,183%,122%,121%,130%,244%,79.6%,111%
"O=C(Nc1cc(C(F)(F)F)cc(C(F)(F)F)c1)c1cc(Cl)ccc1O + O=C(O)c1ccc(-c2c[nH]c3ncc(-c4ccccc4)cc23)cc1C1CCCC1 [GSK650394] (first compound 0.016 µM, partner dose 0.16 µM)",104%,78.8%,114%,71.9%,89.3%,125%,69.6%,152%,107%,82.3%,77.1%,59.2%,80.4%,107%,98.2%,107%
"CCCCCCCCCCCCCCCCCCOP(=O)([O-])OC1CC[N+](C)(C)CC1 [Perifosine] + COc1ccc(COc2ccc(Cc3cnc(N)nc3N)cc2OC)cc1 [GW2580] (first compound 0.4 µM, partner dose 1 µM)",106%,131%,98.4%,86.3%,57.9%,68.5%,301%,67.7%,146%,176%,37.6%,50.7%,176%,70.2%,78.5%,50.1%
"N#CC[C@H](C1CCCC1)n1cc(-c2ncnc3[nH]ccc23)cn1 [ruxolitinib] + CC(C)CCN1c2nc(Nc3cc(F)c(O)c(F)c3)ncc2N(C)C(=O)C1C [BID1870] (first compound 1 µM, partner dose 0.2 µM)",246%,181%,64.8%,127%,64.3%,162%,173%,202%,53.8%,52.9%,48.8%,95.6%,81.1%,71.5%,103%,87.6%
"O=C(Nc1cc(C(F)(F)F)cc(C(F)(F)F)c1)c1cc(Cl)ccc1O + COc1cc(N2CCC(N3CCN(C)CC3)CC2)ccc1Nc1ncc(Cl)c(Nc2ccccc2S(=O)(=O)C(C)C)n1 [NVP-TAE684] (first compound 0.016 µM, partner dose 0.08 µM)",189%,151%,38.6%,153%,179%,125%,75.5%,254%,156%,134%,87.2%,52.4%,111%,57%,112%,230%
"O=C(/C=C/c1cccnc1)NCCCCC1CCN(C(=O)c2ccccc2)CC1 + O=c1cc(-c2cccc3c2Sc2ccccc2S3)oc(N2CCOCC2)c1 [KU55933] (first compound 0.01 µM, partner dose 1 µM)",398%,78.5%,76.4%,151%,117%,366%,80.4%,40.9%,146%,78.2%,242%,305%,104%,40.4%,114%,39.5%
"CC[C@]1(O)C[C@H]2CN(CCc3c([nH]c4ccccc34)[C@@](C(=O)OC)(c3cc4c(cc3OC)N(C=O)[C@H]3[C@@](O)(C(=O)OC)[C@H](OC(C)=O)[C@]5(CC)C=CCN6CC[C@]43[C@@H]65)C2)C1 [vincristine] + CC1(C)NC(=O)N(c2ccc([N+](=O)[O-])c(C(F)(F)F)c2)C1=O [nilutamide] (first compound 0.0001 µM, partner dose 1 µM)",83.3%,85.6%,107%,94.9%,124%,92.2%,80.7%,279%,241%,144%,1040%,297%,87.5%,671%,139%,192%
"COc1cc([C@@H]2c3cc4c(cc3[C@@H](O[C@@H]3O[C@@H]5CO[C@@H](C)O[C@H]5[C@H](O)[C@H]3O)[C@H]3COC(=O)[C@H]23)OCO4)cc(OC)c1O [etoposide] + C[C@@H]1CCN(C(=O)CC#N)C[C@@H]1N(C)c1ncnc2[nH]ccc12 [CP690550] (first compound 0.02 µM, partner dose 1 µM)",69.1%,84.6%,118%,145%,112%,117%,102%,128%,108%,68%,16.8%,33.3%,93.9%,54%,117%,84.4%
"Cc1cc(Nc2cc(N3CCN(C)CC3)nc(Sc3ccc(NC(=O)C4CC4)cc3)n2)n[nH]1 [Tozasertib] + CCc1ccc(CCOc2ccc(CC3SC(=O)NC3=O)cc2)nc1 [pioglitazone] (first compound 0.006 µM, partner dose 2 µM)",51.1%,92.3%,33.6%,83.9%,121%,124%,89.5%,67.3%,62.4%,70.4%,108%,114%,110%,71.6%,97.3%,227%
"CCCCCCCCCCCCCCCCCCOP(=O)([O-])OC1CC[N+](C)(C)CC1 [Perifosine] + COc1cc(Nc2ncc(F)c(Nc3ccc4c(n3)NC(=O)C(C)(C)O4)n2)cc(OC)c1OC [Tamatinib] (first compound 0.4 µM, partner dose 0.4 µM)",241%,139%,369%,135%,81%,154%,141%,71.9%,208%,101%,71.4%,310%,149%,83.8%,189%,136%
"O=C(/C=C/c1cccnc1)NCCCCC1CCN(C(=O)c2ccccc2)CC1 + COc1cc2ncnc(Nc3ccc(Oc4ccccc4)cc3)c2cc1OC [SrcI1] (first compound 0.01 µM, partner dose 2 µM)",391%,50.2%,129%,109%,160%,651%,498%,71.7%,136%,191%,44.5%,26.7%,84.3%,75.3%,224%,95.4%
"O=C(/C=C/c1cccnc1)NCCCCC1CCN(C(=O)c2ccccc2)CC1 + COc1cc2c(Oc3ccc4[nH]c(C)cc4c3F)ncnc2cc1OCCCN1CCCC1 [cediranib] (first compound 0.01 µM, partner dose 0.4 µM)",494%,143%,213%,220%,64.1%,466%,64.5%,35.2%,66.3%,33%,87.4%,98.3%,95%,120%,101%,211%
"N#CC[C@H](C1CCCC1)n1cc(-c2ncnc3[nH]ccc23)cn1 [ruxolitinib] + COc1cc(Nc2ncc(F)c(Nc3ccc4c(n3)NC(=O)C(C)(C)O4)n2)cc(OC)c1OC [Tamatinib] (first compound 1 µM, partner dose 0.4 µM)",114%,164%,51.2%,55.6%,62.7%,70.2%,212%,79%,199%,137%,84.6%,135%,142%,60.4%,109%,80.6%
"N#CC[C@H](C1CCCC1)n1cc(-c2ncnc3[nH]ccc23)cn1 [ruxolitinib] + NC(=O)Nc1cc(-c2cccc(F)c2)sc1C(=O)N[C@H]1CCCNC1 [AZD7762] (first compound 1 µM, partner dose 0.02 µM)",104%,206%,120%,63.9%,94.6%,121%,49.3%,188%,89.9%,112%,77.3%,107%,88.4%,201%,157%,143%
"CC[C@]1(O)C[C@H]2CN(CCc3c([nH]c4ccccc34)[C@@](C(=O)OC)(c3cc4c(cc3OC)N(C=O)[C@H]3[C@@](O)(C(=O)OC)[C@H](OC(C)=O)[C@]5(CC)C=CCN6CC[C@]43[C@@H]65)C2)C1 [vincristine] + CC(C)CCN1c2nc(Nc3cc(F)c(O)c(F)c3)ncc2N(C)C(=O)C1C [BID1870] (first compound 0.0001 µM, partner dose 0.2 µM)",155%,632%,143%,44.3%,93.9%,94.8%,77.4%,137%,10.8%,1320%,665%,168%,130%,185%,165%,288%
"Cc1cc(Nc2cc(N3CCN(C)CC3)nc(Sc3ccc(NC(=O)C4CC4)cc3)n2)n[nH]1 [Tozasertib] + COc1cc(Nc2ncc(F)c(Nc3ccc4c(n3)NC(=O)C(C)(C)O4)n2)cc(OC)c1OC [Tamatinib] (first compound 0.006 µM, partner dose 0.4 µM)",249%,115%,112%,103%,97.1%,84.1%,101%,85%,77.2%,48%,104%,42.8%,226%,63.3%,231%,94.3%
"O=c1[nH]nc(Sc2ncc([N+](=O)[O-])s2)n1-c1ccc2c(c1)OCCO2 + O=C(Nc1ccccc1)c1cc([N+](=O)[O-])ccc1Cl [GW9662] (first compound 0.2 µM, partner dose 2 µM)",94.9%,130%,68.6%,231%,87.4%,138%,74.8%,77.4%,43%,162%,70.9%,156%,89.9%,82.2%,97.2%,69.8%

# Full records, quoted from the list. Order of values: cleaved PARP positive nuclei fraction (MZ2-MEL) | cleaved PARP positive nuclei fraction (MeWo) | cleaved PARP positive nuclei fraction (RPMI7951) | cleaved PARP positive nuclei fraction (RVH-421) | cleaved PARP positive nuclei fraction (SkMel28) | cleaved PARP positive nuclei fraction (SkMel2) | cleaved PARP positive nuclei fraction (SkMel30) | cleaved PARP positive nuclei fraction (SkMel5) | cleaved PARP positive nuclei fraction (UACC257) | cleaved PARP positive nuclei fraction (UACC62) | cleaved PARP positive nuclei fraction (WM115) | cleaved PARP positive nuclei fraction (WM1716) | cleaved PARP positive nuclei fraction (WM1745) | cleaved PARP positive nuclei fraction (WM3526) | cleaved PARP positive nuclei fraction (WM3619) | cleaved PARP positive nuclei fraction (WM451Lu)
# CCCCCCCCCCCCCCCCCCOP(=O)([O-])OC1CC[N+](C)(C)CC1 [Perifosine] + COc1cc(Nc2ncc(F)c(Nc3ccc4c(n3)NC(=O)C(C)(C)O4)n2)cc(OC)c1OC [Tamatinib] (first compound 0.4 µM, partner dose 0.4 µM) as listed: 241% | 139% | 369% | 135% | 81% | 154% | 141% | 71.9% | 208% | 101% | 71.4% | 310% | 149% | 83.8% | 189% | 136%
# O=C(Nc1cc(C(F)(F)F)cc(C(F)(F)F)c1)c1cc(Cl)ccc1O + COc1cc(N2CCC(N3CCN(C)CC3)CC2)ccc1Nc1ncc(Cl)c(Nc2ccccc2S(=O)(=O)C(C)C)n1 [NVP-TAE684] (first compound 0.016 µM, partner dose 0.08 µM) as listed: 189% | 151% | 38.6% | 153% | 179% | 125% | 75.5% | 254% | 156% | 134% | 87.2% | 52.4% | 111% | 57% | 112% | 230%
